Measured values from the supplement of paper PMC10849652.
The list shows a part of the results.

Chains of the proteins cited; added tags and fusions are not shown. Lines headed by an entry give the natural chain unless they say otherwise; changes in a name come on top.
UniProt Q96DF8: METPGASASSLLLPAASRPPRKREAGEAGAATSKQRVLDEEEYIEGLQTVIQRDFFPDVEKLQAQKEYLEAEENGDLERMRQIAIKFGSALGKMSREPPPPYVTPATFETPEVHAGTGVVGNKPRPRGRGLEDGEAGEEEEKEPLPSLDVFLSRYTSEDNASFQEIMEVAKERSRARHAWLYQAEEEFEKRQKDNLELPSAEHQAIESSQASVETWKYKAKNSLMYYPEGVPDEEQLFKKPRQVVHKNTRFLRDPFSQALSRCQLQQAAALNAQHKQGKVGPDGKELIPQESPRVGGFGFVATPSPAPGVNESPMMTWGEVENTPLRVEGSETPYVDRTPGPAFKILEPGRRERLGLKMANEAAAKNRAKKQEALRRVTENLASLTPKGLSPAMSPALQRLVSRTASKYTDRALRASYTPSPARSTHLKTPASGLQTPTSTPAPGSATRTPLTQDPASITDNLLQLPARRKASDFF
UniProt Q14674: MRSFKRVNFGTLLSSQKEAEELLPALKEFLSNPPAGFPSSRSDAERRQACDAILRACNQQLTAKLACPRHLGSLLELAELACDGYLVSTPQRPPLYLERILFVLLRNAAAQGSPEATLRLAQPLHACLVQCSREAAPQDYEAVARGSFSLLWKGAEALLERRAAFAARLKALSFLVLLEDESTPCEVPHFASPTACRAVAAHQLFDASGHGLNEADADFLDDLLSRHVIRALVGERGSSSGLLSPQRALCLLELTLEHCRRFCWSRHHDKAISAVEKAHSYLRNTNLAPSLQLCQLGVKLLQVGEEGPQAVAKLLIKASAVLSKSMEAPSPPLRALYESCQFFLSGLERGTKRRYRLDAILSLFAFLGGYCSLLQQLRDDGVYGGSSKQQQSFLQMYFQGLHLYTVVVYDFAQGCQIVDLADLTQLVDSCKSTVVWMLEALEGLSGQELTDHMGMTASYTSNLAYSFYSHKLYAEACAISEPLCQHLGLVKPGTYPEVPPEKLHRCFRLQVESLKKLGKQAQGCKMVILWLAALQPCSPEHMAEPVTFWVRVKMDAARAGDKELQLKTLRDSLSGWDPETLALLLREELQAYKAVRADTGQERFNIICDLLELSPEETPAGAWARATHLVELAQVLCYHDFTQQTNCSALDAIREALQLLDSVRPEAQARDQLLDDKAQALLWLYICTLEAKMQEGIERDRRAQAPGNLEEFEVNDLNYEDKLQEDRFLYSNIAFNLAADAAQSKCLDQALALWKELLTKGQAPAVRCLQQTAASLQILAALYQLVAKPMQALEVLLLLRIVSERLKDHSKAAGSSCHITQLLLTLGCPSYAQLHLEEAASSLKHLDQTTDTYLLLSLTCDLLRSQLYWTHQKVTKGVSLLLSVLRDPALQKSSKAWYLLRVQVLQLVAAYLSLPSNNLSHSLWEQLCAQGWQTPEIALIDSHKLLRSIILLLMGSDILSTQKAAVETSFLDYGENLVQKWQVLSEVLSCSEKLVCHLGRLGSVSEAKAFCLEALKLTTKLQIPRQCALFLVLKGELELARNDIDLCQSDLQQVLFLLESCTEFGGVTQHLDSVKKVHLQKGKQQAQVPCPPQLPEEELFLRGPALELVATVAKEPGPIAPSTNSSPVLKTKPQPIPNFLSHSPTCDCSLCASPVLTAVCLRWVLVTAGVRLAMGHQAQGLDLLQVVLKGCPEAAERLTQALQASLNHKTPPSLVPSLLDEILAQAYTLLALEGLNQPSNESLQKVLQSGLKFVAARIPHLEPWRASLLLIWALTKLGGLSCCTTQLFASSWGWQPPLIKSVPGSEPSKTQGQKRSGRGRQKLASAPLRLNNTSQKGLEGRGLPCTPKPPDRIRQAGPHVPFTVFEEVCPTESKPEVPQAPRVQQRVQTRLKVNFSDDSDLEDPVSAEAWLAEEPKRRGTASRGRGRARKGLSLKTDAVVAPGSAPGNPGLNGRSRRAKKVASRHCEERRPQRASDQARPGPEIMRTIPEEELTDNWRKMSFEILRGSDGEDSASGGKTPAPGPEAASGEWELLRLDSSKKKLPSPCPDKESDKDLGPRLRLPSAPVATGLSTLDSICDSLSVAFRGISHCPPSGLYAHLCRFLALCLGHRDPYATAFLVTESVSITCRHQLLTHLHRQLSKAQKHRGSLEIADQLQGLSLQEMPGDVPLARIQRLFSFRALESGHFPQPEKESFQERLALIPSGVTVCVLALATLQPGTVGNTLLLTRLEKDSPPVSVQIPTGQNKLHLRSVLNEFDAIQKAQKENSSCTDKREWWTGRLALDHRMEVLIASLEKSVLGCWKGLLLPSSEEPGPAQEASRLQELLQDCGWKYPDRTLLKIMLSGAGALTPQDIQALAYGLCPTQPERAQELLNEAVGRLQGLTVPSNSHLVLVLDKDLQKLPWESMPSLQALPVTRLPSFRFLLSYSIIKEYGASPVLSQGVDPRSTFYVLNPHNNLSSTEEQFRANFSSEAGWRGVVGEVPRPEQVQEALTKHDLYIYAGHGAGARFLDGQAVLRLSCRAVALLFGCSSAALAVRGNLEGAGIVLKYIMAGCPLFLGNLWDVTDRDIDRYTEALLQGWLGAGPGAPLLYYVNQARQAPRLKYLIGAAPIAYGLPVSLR
UniProt Q01844: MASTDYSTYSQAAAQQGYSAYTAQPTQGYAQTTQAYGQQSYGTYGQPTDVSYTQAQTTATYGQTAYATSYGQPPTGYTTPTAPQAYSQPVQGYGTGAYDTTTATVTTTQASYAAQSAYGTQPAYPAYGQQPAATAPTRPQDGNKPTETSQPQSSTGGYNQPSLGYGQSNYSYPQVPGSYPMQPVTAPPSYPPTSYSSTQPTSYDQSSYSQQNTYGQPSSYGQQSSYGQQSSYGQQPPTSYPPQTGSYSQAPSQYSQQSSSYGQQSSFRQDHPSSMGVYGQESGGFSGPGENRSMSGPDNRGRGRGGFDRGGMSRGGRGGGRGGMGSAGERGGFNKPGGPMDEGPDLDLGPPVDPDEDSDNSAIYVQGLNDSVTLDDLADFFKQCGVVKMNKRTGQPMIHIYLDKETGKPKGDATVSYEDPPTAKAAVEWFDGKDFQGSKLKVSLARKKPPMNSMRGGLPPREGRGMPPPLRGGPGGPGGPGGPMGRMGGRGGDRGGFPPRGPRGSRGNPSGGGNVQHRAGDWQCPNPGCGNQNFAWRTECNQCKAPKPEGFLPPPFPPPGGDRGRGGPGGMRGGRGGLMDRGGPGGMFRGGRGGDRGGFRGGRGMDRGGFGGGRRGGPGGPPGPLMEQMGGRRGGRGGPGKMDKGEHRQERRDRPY
UniProt Q9Y624, whole entry, looked up, stated change not applied: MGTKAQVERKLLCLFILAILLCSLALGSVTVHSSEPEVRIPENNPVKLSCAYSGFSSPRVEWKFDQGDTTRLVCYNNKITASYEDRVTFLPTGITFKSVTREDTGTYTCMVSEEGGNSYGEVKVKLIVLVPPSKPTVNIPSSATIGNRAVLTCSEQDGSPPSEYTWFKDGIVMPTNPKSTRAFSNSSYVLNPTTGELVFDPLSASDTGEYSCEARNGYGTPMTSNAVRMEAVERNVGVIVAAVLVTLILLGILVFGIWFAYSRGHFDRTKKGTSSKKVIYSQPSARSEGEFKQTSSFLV
UniProt P07099: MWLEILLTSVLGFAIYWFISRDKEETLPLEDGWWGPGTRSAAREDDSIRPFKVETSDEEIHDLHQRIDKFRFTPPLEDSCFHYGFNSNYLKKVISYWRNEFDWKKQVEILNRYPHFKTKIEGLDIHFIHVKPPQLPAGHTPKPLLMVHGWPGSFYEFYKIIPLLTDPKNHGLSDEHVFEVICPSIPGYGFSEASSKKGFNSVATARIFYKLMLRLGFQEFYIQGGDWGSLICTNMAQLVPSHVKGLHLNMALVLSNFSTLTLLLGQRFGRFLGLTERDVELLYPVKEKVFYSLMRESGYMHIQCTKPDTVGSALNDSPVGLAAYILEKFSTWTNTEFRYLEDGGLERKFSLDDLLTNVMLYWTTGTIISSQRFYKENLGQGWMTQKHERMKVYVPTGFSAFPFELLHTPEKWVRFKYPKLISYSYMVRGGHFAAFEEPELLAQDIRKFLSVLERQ
UniProt Q96HE7: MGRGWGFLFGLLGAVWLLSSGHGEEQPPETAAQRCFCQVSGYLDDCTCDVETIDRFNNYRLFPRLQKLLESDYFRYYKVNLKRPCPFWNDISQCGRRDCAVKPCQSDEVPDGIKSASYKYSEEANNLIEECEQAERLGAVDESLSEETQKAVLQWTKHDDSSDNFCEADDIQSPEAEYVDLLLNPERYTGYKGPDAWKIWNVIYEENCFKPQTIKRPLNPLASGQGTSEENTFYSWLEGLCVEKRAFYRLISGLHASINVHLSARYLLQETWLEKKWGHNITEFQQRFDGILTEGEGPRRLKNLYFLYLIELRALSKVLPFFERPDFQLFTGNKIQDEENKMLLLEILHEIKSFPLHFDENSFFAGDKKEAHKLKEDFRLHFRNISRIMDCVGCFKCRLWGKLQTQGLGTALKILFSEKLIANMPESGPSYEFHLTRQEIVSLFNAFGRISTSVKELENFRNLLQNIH
UniProt Q9NV70: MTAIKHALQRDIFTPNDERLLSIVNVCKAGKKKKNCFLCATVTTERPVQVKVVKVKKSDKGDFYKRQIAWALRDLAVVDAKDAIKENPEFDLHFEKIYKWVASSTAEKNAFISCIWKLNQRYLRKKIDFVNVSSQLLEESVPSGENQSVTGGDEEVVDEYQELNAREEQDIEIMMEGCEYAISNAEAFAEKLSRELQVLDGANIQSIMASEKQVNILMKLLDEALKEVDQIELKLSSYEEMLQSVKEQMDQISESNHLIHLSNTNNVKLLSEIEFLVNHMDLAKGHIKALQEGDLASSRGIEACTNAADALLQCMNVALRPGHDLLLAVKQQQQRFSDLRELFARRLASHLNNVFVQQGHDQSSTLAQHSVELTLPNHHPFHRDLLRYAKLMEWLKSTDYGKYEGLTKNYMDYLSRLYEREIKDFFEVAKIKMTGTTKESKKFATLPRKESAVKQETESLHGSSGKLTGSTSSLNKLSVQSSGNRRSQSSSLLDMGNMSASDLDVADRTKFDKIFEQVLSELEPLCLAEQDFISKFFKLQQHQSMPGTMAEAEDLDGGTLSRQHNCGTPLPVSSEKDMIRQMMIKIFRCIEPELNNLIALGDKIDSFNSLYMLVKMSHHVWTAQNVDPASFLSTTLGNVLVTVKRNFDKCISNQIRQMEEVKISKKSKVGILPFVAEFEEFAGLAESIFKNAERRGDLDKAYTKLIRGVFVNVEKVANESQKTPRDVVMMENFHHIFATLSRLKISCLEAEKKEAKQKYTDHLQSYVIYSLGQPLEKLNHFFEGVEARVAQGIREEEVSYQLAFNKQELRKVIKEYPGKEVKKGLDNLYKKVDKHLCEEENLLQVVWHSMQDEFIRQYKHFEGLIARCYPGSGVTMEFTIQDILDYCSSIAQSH
UniProt Q9HBU6: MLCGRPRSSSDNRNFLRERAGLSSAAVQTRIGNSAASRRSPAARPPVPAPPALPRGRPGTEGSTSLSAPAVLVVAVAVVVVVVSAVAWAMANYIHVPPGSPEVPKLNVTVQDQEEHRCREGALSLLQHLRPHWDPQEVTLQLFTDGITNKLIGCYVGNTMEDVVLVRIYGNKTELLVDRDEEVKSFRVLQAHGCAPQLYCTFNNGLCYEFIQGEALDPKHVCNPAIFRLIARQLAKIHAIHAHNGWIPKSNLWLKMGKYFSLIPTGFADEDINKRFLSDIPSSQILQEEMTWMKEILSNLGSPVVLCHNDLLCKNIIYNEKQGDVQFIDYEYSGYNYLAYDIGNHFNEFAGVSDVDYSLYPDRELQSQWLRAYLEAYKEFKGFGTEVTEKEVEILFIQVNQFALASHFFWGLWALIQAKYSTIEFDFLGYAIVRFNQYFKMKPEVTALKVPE
UniProt Q5W0V3: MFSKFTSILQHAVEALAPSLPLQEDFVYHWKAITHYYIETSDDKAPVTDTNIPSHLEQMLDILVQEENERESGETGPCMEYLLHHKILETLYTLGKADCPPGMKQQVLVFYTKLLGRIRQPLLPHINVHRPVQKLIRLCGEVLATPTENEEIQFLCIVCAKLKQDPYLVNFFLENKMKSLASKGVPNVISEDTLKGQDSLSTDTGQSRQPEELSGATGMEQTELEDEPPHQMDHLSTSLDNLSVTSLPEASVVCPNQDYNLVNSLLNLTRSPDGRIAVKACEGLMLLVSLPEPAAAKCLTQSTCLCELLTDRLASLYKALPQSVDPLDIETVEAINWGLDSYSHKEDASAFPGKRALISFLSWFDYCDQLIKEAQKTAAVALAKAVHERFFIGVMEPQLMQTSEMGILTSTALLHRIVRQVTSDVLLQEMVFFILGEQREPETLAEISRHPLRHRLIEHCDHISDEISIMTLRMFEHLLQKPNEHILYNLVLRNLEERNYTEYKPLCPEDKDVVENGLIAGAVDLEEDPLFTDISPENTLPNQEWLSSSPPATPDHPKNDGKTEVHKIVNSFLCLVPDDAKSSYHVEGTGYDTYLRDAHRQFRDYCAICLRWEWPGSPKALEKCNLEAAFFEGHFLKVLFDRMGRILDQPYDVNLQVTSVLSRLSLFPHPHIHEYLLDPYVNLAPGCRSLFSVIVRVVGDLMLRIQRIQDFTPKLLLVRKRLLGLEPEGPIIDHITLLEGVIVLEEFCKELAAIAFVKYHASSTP

Legend:
Assay in all cases: log2 fold change, soluble protein after heating vs DMSO (PISA); higher = thermal stabilisation; K562 cells, 10 uM, 30 min; active = over 0.2 and 3.5 SD of the protein, either way, in both replicates (recomputed)
[1] = compound: C1=CC=C(C=C1)[C@H](COC2=CC3=C(C=C2)NC(=O)N3)NC(=O)C4=CC=CN(C4=O)CC5=CC(=C(C=C5)F)F
Summary of the method: (§1)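 Quantification of soluble protein used TMTpro 16plex LC-MS/MS, with channel sums equalised. Samples were the supernatant after 21,000xg for 90 min of pooled aliquots from K562 cells (2×10^6 cells/mL) treated with 10 μM compound for 30 min, heated for 3 min over 48°C-58°C, and extracted in PBS with 0.5% NP-40 at 4°C. Values, from duplicates, describe thermal stability against control samples on a log2 fold-change scale.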

[2] = compound: CC1=C(SC2=C1C(=N[C@H](C3=NN=C(N32)C)CC(=O)N)C4=CC=C(C=C4)Cl)C
Summary of the method: as §1

[3] = compound: CC1=C2C(=CC=C1)N=C(N(C2=O)C3=CC=CC=C3C)CN4C=NC5=C(N=CN=C54)N
Summary of the method: as §1

[4] = compound: Cc1sc2c(c1C)C(c1ccc(Cl)cc1)=N[C@@H](CC(=O)OC(C)(C)C)c1nnc(C)n1-2
Summary of the method: as §1

[5] = compound: c1ccc([C@@H]2C[C@H]2NC2CCNCC2)cc1
Summary of the method: as §1

Measured: log2 fold change

ERCC6 (UniProt Q03468)
inactive: [1] 0.013 | [2] -0.025 | [3] -0.018 | [4] -0.008 | [5] 0.151

FAHD2A (UniProt Q96GK7)
inactive: [1] 0.049 | [2] 0.061 | [3] 0.004 | [4] -0.029 | [5] -0.015

ERBIN isoform 8 (UniProt Q96RT1)
inactive: [1] -0.011 | [2] 0.06 | [3] 0.116 | [4] 0.002 | [5] 0.002

ERLIN1 (UniProt O75477)
inactive: [1] -0.007 | [2] -0.036 | [3] 0.002 | [4] -0.038 | [5] -0.026

ESS2 (UniProt Q96DF8)
inactive: [1] 0.04 | [2] -0.06 | [3] -0.096 | [4] 0.018 | [5] 0.075

ESPL1 (UniProt Q14674)
inactive: [1] -0.214 | [2] 0.101 | [3] -0.055 | [5] 0.038

ESRRA (UniProt P11474)
inactive: [1] 0.02 | [2] 0.071 | [3] 0.123 | [4] 0.173 | [5] -0.095

EWSR1 isoform 5 (UniProt Q01844)
inactive: [1] 0.062 | [2] -0.062 | [3] -0.004 | [4] 0.016 | [5] 0.021

EPCAM (UniProt P16422)
inactive: [1] -0.013 | [2] 0.067 | [3] -0.027 | [4] -0.007 | [5] 0.008

EXOC8 (UniProt Q8IYI6)
inactive: [1] -0.004 | [2] 0.029 | [3] 0.03 | [4] 0.006 | [5] -0.051

F11R (UniProt Q9Y624)
inactive: [1] 0.006 | [2] -0.004 | [3] 0.014 | [4] 0.002 | [5] -0.018

ETFB (UniProt P38117)
inactive: [1] -0.019 | [2] 0.03 | [3] 0.026 | [4] 0.028 | [5] 0.007

FAF1 (UniProt Q9UNN5)
inactive: [1] -0.005 | [2] 0.011 | [3] 0.031 | [4] 0.003 | [5] 0.005

EPHX1 (UniProt P07099)
inactive: [1] 0.035 | [2] -0.018 | [3] -0.034 | [4] -0.007 | [5] 0.035

ERO1A (UniProt Q96HE7)
inactive: [1] 0.025 | [2] -0.028 | [3] 0.003 | [4] -0.033 | [5] -0.004

FADS1, A0A0A0MR51
inactive: [1] -0.051 | [2] 0.026 | [3] 0.026 | [4] -0.005 | [5] -0.038

EXOC1 (UniProt Q9NV70)
inactive: [1] -0.095 | [2] 0.021 | [3] 0.121 | [4] 0.027 | [5] -0.075

ETNK1 (UniProt Q9HBU6)
inactive: [1] 0 | [2] 0.044 | [3] 0.071 | [4] -0.092 | [5] 0.022

FAAP100 (UniProt Q0VG06)
inactive: [1] -0.243 | [2] 0.078 | [3] 0.017 | [4] -0.073 | [5] 0.067

FAM160B1 (UniProt Q5W0V3)
inactive: [1] -0.005 | [2] 0.026 | [3] -0.01 | [4] -0.022 | [5] -0.041

ERP29 (UniProt P30040)
inactive: [1] 0.033 | [2] 0.012 | [3] 0.013 | [4] -0.014 | [5] -0.013

FAM117A (UniProt Q9C073)
inactive: [1] -0.004 | [2] 0.057 | [3] 0.027 | [4] 0.01 | [5] 0.012

FAM120A isoform 6 (UniProt Q9NZB2)
inactive: [1] 0.103 | [2] -0.205 | [3] -0.2 | [4] 0.183 | [5] 0.031

EZR (UniProt P15311)
inactive: [1] -0.023 | [2] 0.05 | [3] 0.017 | [4] -0.011 | [5] -0.025

FAM135A (UniProt Q9P2D6)
inactive: [3] 0.106
